Results on five sequences are retold here after paper PMC2890523.

For data set [1], the system named is PaNip7 (Pyrococcus abyssi). Kind of data set: EMSA. To be noted: 1 pmol RNA in 20 ul, 20 mM Tris-HCl pH 8.0, 20 mM KCl, 2 mM MgCl2, 1 mM DTT, 100 ug/ml BSA, 0.8 U RNasin (or conditions of earlier work, ref 21), 37 C, 30 min, recombinant protein, label: 5'-32P. On the technique in general: Mobility shift assays separate free from complexed probe on a gel.
For data set [2], the target named is PaSBDS (Pyrococcus abyssi) (UniProt Q9V121). Kind of data set: EMSA. To be noted: 1 pmol RNA in 20 ul, 20 mM Tris-HCl pH 8.0, 20 mM KCl, 2 mM MgCl2, 1 mM DTT, 100 ug/ml BSA, 0.8 U RNasin (or conditions of earlier work, ref 21), 37 C, 30 min, recombinant protein, protein details: pET-28a vector, Ni-NTA purified (His tag), label: 5'-32P.

For at least one entry, the source does not settle the construct or the ends of the probe. For some assays here: A negative result means that nothing was seen under these conditions. For some assays here: The comparison behind a weaker result is the experiment's own reference, which may not be listed here. For some assays here: At least one verdict was read from the data and is not stated in words by the source.

On to AAAAAAAAAAAAAA [poly-rA 14-mer], for which the binding result in data set [1] (100 pmol, no band shift (text also: not with high affinity)) is “no binding”.
For the sequence UUAUUAUUUAUUUAUUAUUUA [poly-rAU 21-mer], in data set [1] (10-100 pmol, efficient), the binding result is “binds”.
With AAAAAAAAAA [poly-rA 10-mer], the binding result in data set [2] (binds, but longer poly-rA more efficiently) is recorded as “binds more weakly”.
Consider AAAAAAAAAAAA [poly-rA 12-mer], for which the binding result in data set [2] (50-400 pmol) is given as “binds”.
On to UUUUUUUUUUUUUU [poly-rU 14-mer], for which, in data set [2] (low affinity), the binding result is reported as “binds more weakly”.
